Measured values published in patent publication US11130943B2, “Culture medium” (Koninklijke Nederlandse Akademie Van Wetenschappen, priority 2014, dated 2021).
At least one structure is not confirmed: it was looked up by name or label, or the drawing left a doubt.

How the values were obtained:
Cftr KO lung organoids = test: Forskolin induced swelling assay in mouse lung organoids ± Cftr; type: cell-based; conditions: 10 μM forskolin, 3 h
[1] = tested on: human intestinal organoids; test: Swelling assay in human intestinal organoids (control); type: cell-based; conditions: healthy human intestinal organoids; imaged for 2 h

C=C[C@@]1(C)CC(=O)[C@]2(O)[C@@]3(C)[C@@H](O)CCC(C)(C)[C@@H]3[C@H](O)[C@H](OC(C)=O)[C@@]2(C)O1 [forskolin]
swelling following forskolin stimulation (Cftr KO lung organoids): still swelled | swelling in response to forskolin compared with wild-type lung organoids (Cftr KO lung organoids): swelled much less | organoid swelling [1]: respond
